Measurements published in publication PMC4267622, “Pin1-mediated Sp1 phosphorylation by CDK1 increases Sp1 stability and decreases its DNA-binding activity during mitosis” (Nucleic Acids Research, 2014).

Columns and labels:
Experiment in all cases: DAPA (streptavidin pull-down)
[1] = biological target: HA-Sp1-4D S720D,T723D,T737D,T739D (UniProt P08047); conditions: decreased vs HA-Sp1, mitotic extract; DAPA: 1 ug probe in 500 ul 20 mM Tris-HCl pH 7.8, 60 mM KCl, 2 mM MgCl2, 0.5 mM EDTA, 5% glycerol, 0.02% NP-40; 1 h at 4 C, then streptavidin-agarose 1 h at 4 C; protein in a lysate after overexpression; residues 1-785; protein details: HA; label: 5' biotin on S1 strand
Sp1 (endogenous, HeLa) = Sp1 (endogenous, HeLa) (UniProt P08047); conditions: mitosis, DAPA: 1 ug probe in 500 ul 20 mM Tris-HCl pH 7.8, 60 mM KCl, 2 mM MgCl2, 0.5 mM EDTA, 5% glycerol, 0.02% NP-40, 1 h at 4 C, then streptavidin-agarose 1 h at 4 C, protein in an extract, label: 5' biotin on S1 strand
GFP-Sp1(1-785) = GFP-Sp1(1-785) (UniProt P08047); conditions: reference for 1-740, mitotic HeLa extract; DAPA: 1 ug probe in 500 ul 20 mM Tris-HCl pH 7.8, 60 mM KCl, 2 mM MgCl2, 0.5 mM EDTA, 5% glycerol, 0.02% NP-40; 1 h at 4 C, then streptavidin-agarose 1 h at 4 C; protein in a lysate after overexpression; residues 1-785; protein details: GFP; label: 5' biotin on S1 strand
HA-Sp1 = HA-Sp1 (UniProt P08047); conditions: reference, mitotic extract; DAPA: 1 ug probe in 500 ul 20 mM Tris-HCl pH 7.8, 60 mM KCl, 2 mM MgCl2, 0.5 mM EDTA, 5% glycerol, 0.02% NP-40; 1 h at 4 C, then streptavidin-agarose 1 h at 4 C; protein in a lysate after overexpression; residues 1-785; protein details: HA; label: 5' biotin on S1 strand
[2] = biological target: HA-Sp1-4A S720A,T723A,T737A,T739A (UniProt P08047); conditions: increased vs HA-Sp1, mitotic extract; DAPA: 1 ug probe in 500 ul 20 mM Tris-HCl pH 7.8, 60 mM KCl, 2 mM MgCl2, 0.5 mM EDTA, 5% glycerol, 0.02% NP-40; 1 h at 4 C, then streptavidin-agarose 1 h at 4 C; protein in a lysate after overexpression; residues 1-785; protein details: HA; label: 5' biotin on S1 strand
GFP-Sp1(1-740) = GFP-Sp1(1-740) (UniProt P08047); conditions: increased vs 1-785, mitotic HeLa extract; DAPA: 1 ug probe in 500 ul 20 mM Tris-HCl pH 7.8, 60 mM KCl, 2 mM MgCl2, 0.5 mM EDTA, 5% glycerol, 0.02% NP-40; 1 h at 4 C, then streptavidin-agarose 1 h at 4 C; protein in a lysate after overexpression; residues 1-740; protein details: GFP; label: 5' biotin on S1 strand

Measured: binding result

CCCGCCTCCTTGAGGCGGGCCCGGGCGGGGCGG (double strand) [p21WAF1/CIP1 promoter Sp1 probe (-82 to -50)]
binds: Sp1 (endogenous, HeLa); Pin1 knock-down, increased binding vs control | Sp1 (endogenous, HeLa); control without Pin1 knock-down (reference) | GFP-Sp1(1-785) | HA-Sp1 | [2] | GFP-Sp1(1-740)
binds more weakly: [1]

For at least one entry, the source does not settle the construct or the ends of the probe. Results from cells or extracts need not show a direct contact. For some of these results: Weaker means in comparison with the reference protein, sequence or condition of that experiment. For some of these results: At least one verdict was read from the data and is not stated in words by the source.
